Reference: the supplement of paper PMC4604168 (melanoma cell lines)
The other results are listed elsewhere or left out. Repeats are few or missing, and single values can be far off.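 Cells were imaged in 1,536-well plates, and nuclei stained with an antibody against cleaved PARP were counted against all DNA-stained nuclei to give the apoptosis fraction. Screening doses were chosen to leave most cells alive, and resting and induced cleaved-PARP levels differ strongly between cell lines.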

Key:
Assay in all cases: cleaved PARP positive nuclei fraction relative to DMSO control; melanoma cells; higher = more apoptosis
Settings in all cases: library dose: low library concentration; 72 h
[1] = tested on: MZ2-MEL
[2] = tested on: MeWo
[3] = tested on: RPMI7951
[4] = tested on: RVH-421
[5] = tested on: SkMel28
[6] = tested on: SkMel30
[7] = tested on: SkMel5
[8] = tested on: UACC257
[9] = tested on: UACC62
[10] = tested on: WM115
[11] = tested on: WM1716
[12] = tested on: WM1745
[13] = tested on: WM3526
[14] = tested on: WM3619
[15] = tested on: WM451Lu
[16] = tested on: SkMel2

SMILES | cleaved PARP positive nuclei fraction [1] | cleaved PARP positive nuclei fraction [2] | cleaved PARP positive nuclei fraction [3] | cleaved PARP positive nuclei fraction [4] | cleaved PARP positive nuclei fraction [5] | cleaved PARP positive nuclei fraction [6] | cleaved PARP positive nuclei fraction [7] | cleaved PARP positive nuclei fraction [8] | cleaved PARP positive nuclei fraction [9] | cleaved PARP positive nuclei fraction [10] | cleaved PARP positive nuclei fraction [11] | cleaved PARP positive nuclei fraction [12] | cleaved PARP positive nuclei fraction [13] | cleaved PARP positive nuclei fraction [14] | cleaved PARP positive nuclei fraction [15] | cleaved PARP positive nuclei fraction [16]
OCCn1cc(-c2cnc3nnn(Cc4ccc5ncccc5c4)c3n2)cn1 + O=C(O)C(=O)Nc1sc2c(c1C(=O)O)CCNC2 [TCS401] (first compound 1 µM, partner dose 1.66667 µM) | 89.5% | 50.3% | 90.1% | 1350% | 80.8% | 112% | 32.7% | 50.5% | 40.2% | 190% | 106% | 108% | 136% | 90.4% | 166% | 
CC(C)(C)c1cnc(CSc2cnc(NC(=O)C3CCNCC3)s2)o1 + N#Cc1c(O)c2c(-c3ccc(-c4ccccc4O)cc3)csc2[nH]c1=O [A769662] (first compound 0.01 µM, partner dose 2 µM) | 74% | 81.7% | 52.3% | 139% | 216% | 32% | 55.3% | 59.7% | 41.1% | 127% | 99.2% | 95.5% | 181% | 75.2% | 115% | 
C=CCNC1=C2C[C@@H](C)C[C@H](OC)[C@H](O)[C@@H](C)/C=C(\C)[C@H](OC(N)=O)[C@@H](OC)/C=C\C=C(/C)C(=O)NC(=CC1=O)C2=O [Tanespimycin] + C[C@]1(c2nc3c(C(N)=O)cccc3[nH]2)CCCN1 [Veliparib] (first compound 0.002 µM, partner dose 1.4 µM) | 83.9% | 189% | 136% | 113% | 65.6% | 180% |  |  | 118% | 127% | 104% | 120% | 40.7% | 89.4% | 176% | 183%
OCc1c[nH]c2ccccc12 [Indole-3-carbinol] + Cn1nnc2c(C(N)=O)ncn2c1=O [temozolomide] (first compound 0.8 µM, partner dose 2 µM) | 34.6% | 68.1% | 116% | 26.1% | 243% | 96.5% |  |  | 116% | 79.7% | 15.1% | 198% | 90.5% | 73.8% | 59.6% | 43.5%
Clc1ccc(Nc2nnc(Cc3ccncc3)c3ccccc23)cc1 [vatalanib] + Nc1cccc2c1CN(C1CCC(=O)NC1=O)C2=O [lenalidomide] (first compound 2 µM, partner dose 1 µM) | 156% | 330% | 90.1% | 84.6% | 74% | 26.3% |  |  | 70.9% | 118% | 153% | 82.5% | 108% | 85.2% | 108% | 27.6%
Cc1nc(Nc2ncc(C(=O)Nc3c(C)cccc3Cl)s2)cc(N2CCN(CCO)CC2)n1 [dasatanib] + COCC[n+]1c2c(n(Cc3cnccn3)c1C)C(=O)c1ccccc1C2=O [YM155] (first compound 0.004 µM, partner dose 0.0004 µM) | 162% | 84.7% | 476% | 95.1% | 96.7% | 67.7% |  |  | 139% | 96.8% | 99.4% | 146% | 66.6% | 172% | 116% | 165%
C[C@]1(c2nc3c(C(N)=O)cccc3[nH]2)CCCN1 [Veliparib] + O=C(Nc1ccccc1)c1cc([N+](=O)[O-])ccc1Cl [GW9662] (first compound 1.4 µM, partner dose 2 µM) | 152% | 97.2% | 82.5% | 96.2% | 233% | 18.7% | 89.7% | 131% | 51.9% | 304% | 149% | 123% | 37.9% | 106% | 27.9% | 
C=CCNC1=C2C[C@@H](C)C[C@H](OC)[C@H](O)[C@@H](C)/C=C(\C)[C@H](OC(N)=O)[C@@H](OC)/C=C\C=C(/C)C(=O)NC(=CC1=O)C2=O [Tanespimycin] + Cc1nc(Nc2ncc(C(=O)Nc3c(C)cccc3Cl)s2)cc(N2CCN(CCO)CC2)n1 [dasatanib] (first compound 0.002 µM, partner dose 0.004 µM) | 56.7% | 180% | 75.5% | 116% | 69.4% | 65.6% |  |  | 61.1% | 75.6% | 140% | 190% | 97.7% | 139% | 67.7% | 168%
Clc1ccc(Nc2nnc(Cc3ccncc3)c3ccccc23)cc1 [vatalanib] + Cn1c(Nc2ccc(C(F)(F)F)cc2)nc2cc(Oc3ccnc(-c4ncc(C(F)(F)F)[nH]4)c3)ccc21 [CHIR265] (first compound 2 µM, partner dose 0.08 µM) | 144% | 164% | 215% | 92.4% | 193% | 44.6% |  |  | 109% | 738% | 86.1% | 134% | 80.6% | 122% | 106% | 148%
C=CCNC1=C2C[C@@H](C)C[C@H](OC)[C@H](O)[C@@H](C)/C=C(\C)[C@H](OC(N)=O)[C@@H](OC)/C=C\C=C(/C)C(=O)NC(=CC1=O)C2=O [Tanespimycin] + COCC[n+]1c2c(n(Cc3cnccn3)c1C)C(=O)c1ccccc1C2=O [YM155] (first compound 0.002 µM, partner dose 0.0004 µM) | 172% | 58.9% | 21.3% | 94.4% | 79.3% | 49.8% |  |  | 43.9% | 70.4% | 244% | 95.7% | 69.2% | 84.1% | 57.4% | 105%
Cn1c(Nc2ccc(C(F)(F)F)cc2)nc2cc(Oc3ccnc(-c4ncc(C(F)(F)F)[nH]4)c3)ccc21 + Cn1nnc2c(C(N)=O)ncn2c1=O [temozolomide] (first compound 0.08 µM, partner dose 2 µM) | 43.6% | 156% | 122% | 101% | 179% | 150% |  |  | 329% | 1040% | 49.1% | 133% | 60.9% | 150% | 60.1% | 233%
COCC[n+]1c2c(n(Cc3cnccn3)c1C)C(=O)c1ccccc1C2=O + Cn1nnc2c(C(N)=O)ncn2c1=O [temozolomide] (first compound 0.0004 µM, partner dose 2 µM) | 385% | 126% | 130% | 147% | 122% | 147% |  |  | 50.4% | 165% | 41.9% | 75.2% | 102% | 85.6% | 147% | 272%
CC(=O)c1c(C)c2cnc(Nc3ccc(N4CCNCC4)cn3)nc2n(C2CCCC2)c1=O [palbociclib] + Cn1nnc2c(C(N)=O)ncn2c1=O [temozolomide] (first compound 0.04 µM, partner dose 2 µM) | 26.1% | 43.3% | 135% | 84.8% | 69.6% | 88.3% |  |  | 138% | 129% | 132% | 99.2% | 114% | 109% | 130% | 79.2%
Cn1cncc1[C@@](N)(c1ccc(Cl)cc1)c1ccc2c(c1)c(-c1cccc(Cl)c1)cc(=O)n2C [tipifarnib] + Oc1cc(-c2nc(-c3ccccc3)[nH]c2-c2ccncc2)ccc1Cl [L779450] (first compound 0.01 µM, partner dose 0.2 µM) | 109% | 58.7% | 101% | 102% | 161% | 16.1% | 60.2% | 218% | 134% | 392% | 96.5% | 102% | 84.4% | 109% | 55.7% | 
C=CCNC1=C2C[C@@H](C)C[C@H](OC)[C@H](O)[C@@H](C)/C=C(\C)[C@H](OC(N)=O)[C@@H](OC)/C=C\C=C(/C)C(=O)NC(=CC1=O)C2=O [Tanespimycin] + Cn1c(Nc2ccc(C(F)(F)F)cc2)nc2cc(Oc3ccnc(-c4ncc(C(F)(F)F)[nH]4)c3)ccc21 [CHIR265] (first compound 0.002 µM, partner dose 0.08 µM) | 121% | 168% | 141% | 145% | 133% | 670% |  |  | 331% | 554% | 54.2% | 141% | 61.4% | 136% | 235% | 165%
Cn1c(Nc2ccc(C(F)(F)F)cc2)nc2cc(Oc3ccnc(-c4ncc(C(F)(F)F)[nH]4)c3)ccc21 + C[C@]1(c2nc3c(C(N)=O)cccc3[nH]2)CCCN1 [Veliparib] (first compound 0.08 µM, partner dose 1.4 µM) | 126% | 186% | 107% | 125% | 78.1% | 84.8% |  |  | 152% | 625% | 164% | 147% | 43.3% | 177% | 220% | 139%
C[C@]1(c2nc3c(C(N)=O)cccc3[nH]2)CCCN1 [Veliparib] + Cn1nnc2c(C(N)=O)ncn2c1=O [temozolomide] (first compound 1.4 µM, partner dose 2 µM) | 83.5% | 175% | 119% | 101% | 239% | 69.4% |  |  | 258% | 73.4% | 172% | 105% | 47.3% | 92.3% | 238% | 73.2%
CC(C)(C)c1cnc(CSc2cnc(NC(=O)C3CCNCC3)s2)o1 + O=C(O)C(=O)Nc1sc2c(c1C(=O)O)CCNC2 [TCS401] (first compound 0.01 µM, partner dose 1.66667 µM) | 101% | 53.5% | 73.3% | 110% | 299% | 47.2% | 28.3% | 275% | 392% | 144% | 29.8% | 117% | 117% | 80.8% | 147% | 
C[C@@H]1CCN(C(=O)CC#N)C[C@@H]1N(C)c1ncnc2[nH]ccc12 + COc1cc(N2CCC(N3CCN(C)CC3)CC2)ccc1Nc1ncc(Cl)c(Nc2ccccc2S(=O)(=O)C(C)C)n1 [NVP-TAE684] (first compound 1 µM, partner dose 0.08 µM) | 111% | 170% | 91.4% | 104% | 85.3% | 64.2% | 69.2% | 163% | 79.9% | 51.5% | 117% | 134% | 76.9% | 94.8% | 33.5% | 
Cn1cncc1[C@@](N)(c1ccc(Cl)cc1)c1ccc2c(c1)c(-c1cccc(Cl)c1)cc(=O)n2C [tipifarnib] + COc1cc2ncnc(Nc3ccc(Oc4ccccc4)cc3)c2cc1OC [SrcI1] (first compound 0.01 µM, partner dose 2 µM) | 30.6% | 158% | 168% | 82.8% | 181% | 28.4% | 58.3% | 103% | 109% | 462% | 41.9% | 116% | 90.8% | 98.5% | 63.4% | 

Single entries from the list.
Value for COCC[n+]1c2c(n(Cc3cnccn3)c1C)C(=O)c1ccccc1C2=O + Cn1nnc2c(C(N)=O)ncn2c1=O [temozolomide] (first compound 0.0004 µM, partner dose 2 µM) under cleaved PARP positive nuclei fraction [6]: 147%
Value for C[C@]1(c2nc3c(C(N)=O)cccc3[nH]2)CCCN1 [Veliparib] + Cn1nnc2c(C(N)=O)ncn2c1=O [temozolomide] (first compound 1.4 µM, partner dose 2 µM) under cleaved PARP positive nuclei fraction [6]: 69.4%
